{"source": "paper PMC12285200", "biological_target": "T1, GST-tagged ZC3H15 full length (human) (UniProt Q8WU90)", "T1 sequence": "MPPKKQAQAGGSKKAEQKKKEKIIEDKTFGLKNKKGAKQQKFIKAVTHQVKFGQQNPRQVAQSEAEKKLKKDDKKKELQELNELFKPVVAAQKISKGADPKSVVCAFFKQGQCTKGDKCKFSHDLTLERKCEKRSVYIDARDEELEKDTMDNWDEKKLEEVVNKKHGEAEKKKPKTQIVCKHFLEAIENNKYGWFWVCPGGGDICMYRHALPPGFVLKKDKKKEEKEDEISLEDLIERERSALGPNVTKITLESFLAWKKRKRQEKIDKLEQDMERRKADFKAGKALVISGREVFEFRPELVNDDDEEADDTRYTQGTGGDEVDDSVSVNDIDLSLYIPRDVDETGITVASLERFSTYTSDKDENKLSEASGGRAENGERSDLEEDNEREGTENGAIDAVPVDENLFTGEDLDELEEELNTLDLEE", "test": "pull-down; GST pull-down from HEK293T cells co-expressing a FLAG-tagged and a GST-tagged protein; NETN lysis buffer, beads 4 °C 2 to 4 h, three washes; western blot", "note": "These are yes or no findings as the source states them, for the method shown. In cells and extracts the contact can be indirect. A result given as binding can be weak or reduced; the word gives no strength. Where a sequence is shown, tags or fusion partners need not be part of it."}
{"substance": "FLAG-tagged TERT TEN domain (truncation mutant) (human) (domain or fragment)", "values": [{"measurement": "binding", "result": "binds"}]}
